Results are given in words; binding and its absence hold for the method and conditions named. Some results given as binding are weak or reduced against the parent protein; the word gives no strength.
B1: CD32B-CD79-1 bispecific diabody (bispecific antibody)
chain 1: DVVMTQSPLSLPVTLGQPASISCKSSQSLLDSDGKTYLNWFQQRPGQSPNRLIYLVSKLDSGVPDRFSGSGSGTDFTLKISRVEAEDVGVYYCWQGTHFPLTFGGGTKLEIKGGGSGGGGEVQLVESGGGLVQPGGSLRLSCAASGFTFSDAWMDWVRQAPGKGLEWVAEIRNKAKNHATYYAESVIGRFTISRDDAKNSLYLQMNSLRAEDTAVYYCGALGLDYWGQGTLVTVSSLGGC
chain 2: DIQMTQSPSSLSASVGDRVTITCRASQEISGYLSWLQQKPGKAPRRLIYAASTLDSGVPSRFSGSESGTEFTLTISSLQPEDFATYYCLQYFSYPLTFGGGTKVEIKGGGSGGGGQVQLVQSGAEVKKPGASVKVSCKASGYTFTSYWMNWVRQAPGQGLEWIGMIDPSDSETHYNQMFKDRVTMTTDTSTSTAYMELRSLRSDDTAVYYCARAMGYWGQGTTVTVSSLGGC
B2: CD32B-CD79-2 bispecific diabody (bispecific antibody)
chain 1: DVVMTQSPLSLPVTLGQPASISCKSSQSLLDSDGKTYLNWFQQRPGQSPNRLIYLVSKLDSGVPDRFSGSGSGTDFTLKISRVEAEDVGVYYCWQGTHFPLTFGGGTKLEIKGGGSGGGGEVQLVESGGGLVQPGGSLRLSCAASGFTFSDAWMDWVRQAPGKGLEWVAEIRNKAKNHATYYAESVIGRFTISRDDAKNSLYLQMNSLRAEDTAVYYCGALGLDYWGQGTLVTVSSLGGC
chain 2: DIQMTQSPSSLSASVGDRVTITCRASQEISGYLSWLQQKPGKAPRRLIYAASTLDSGVPSRFSGSESGTEFTLTISSLQPEDFATYYCLQYFSYPLTFGGGTKVEIKGGGSGGGGQVQLVQSGAEVKKPGASVKVSCKASGYTFTSYWMNWVRQAPGQGLEWIGMIDPSDSETHYNQKFKDRVTMTTDTSTSTAYMELRSLRSDDTAVYYCARAMGYWGQGTTVTVSSLGGC

Protein sequences, listed by entry. Tags and fused reporters are not part of them. Residues count along the entry.
UniProt P31994, residues 43-217: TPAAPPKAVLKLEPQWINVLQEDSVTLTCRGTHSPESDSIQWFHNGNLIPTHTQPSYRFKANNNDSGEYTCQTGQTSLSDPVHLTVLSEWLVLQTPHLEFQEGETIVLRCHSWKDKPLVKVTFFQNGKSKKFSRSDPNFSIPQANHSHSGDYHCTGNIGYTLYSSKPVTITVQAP

Biological target: CD32B-Fc (UniProt P31994)
Assay: competition ELISA on coated CD32B-Fc; competitor anti-CD32B antibody 50 ng/ml

Binder | binding
B1 | binds
B2 | binds
